The source of these data is article PMC3903541.

These are yes or no findings as the source states them, for the method shown. For some of these results: Binding seen in cells or lysates may run through a third protein. Some binding calls cover weakened binding; strength is not graded here. For some of these results: Sequences can lack the tags named with a protein.

The target of test [1] is T1, PRKRA-GST (full-length) (human) (UniProt O75569).
T1 sequence: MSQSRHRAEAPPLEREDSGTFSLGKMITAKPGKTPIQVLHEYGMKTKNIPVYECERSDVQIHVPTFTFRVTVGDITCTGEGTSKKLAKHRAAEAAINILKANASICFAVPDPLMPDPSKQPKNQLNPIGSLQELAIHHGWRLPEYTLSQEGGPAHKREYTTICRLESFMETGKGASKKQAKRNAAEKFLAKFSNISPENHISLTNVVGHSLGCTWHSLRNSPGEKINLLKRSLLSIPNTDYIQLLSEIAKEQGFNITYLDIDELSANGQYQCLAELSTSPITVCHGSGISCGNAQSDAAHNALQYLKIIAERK
Nature of the test: pull-down; GST fusion proteins on glutathione-agarose beads; pre-cleared lysate (1 mg protein) of V5-C2orf62-transfected HEK293T cells, 2 hrs at 4°C; anti-V5 Western blot; only the target purified.

The target of test [2] is T2, TTC17-GST (aa 945-1041) (human) (UniProt Q96AE7).
T2 sequence: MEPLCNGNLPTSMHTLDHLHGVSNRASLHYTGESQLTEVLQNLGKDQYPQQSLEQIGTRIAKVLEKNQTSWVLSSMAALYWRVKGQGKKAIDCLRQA
The description is as above.

The next test concerns the target T3, mCherry-TTC17 (human) (UniProt Q96AE7).
T3 sequence: T2 sequence
As to the kind of experiment: FRET or BRET; EGFP-C2orf62 and mCherry-TTC17 co-transfected in hTERT-RPE1 cells, confocal microscopy 24 h later; normalized FRET (FRETn) corrected for bleed-through.

In test [3] the target is T4, C2orf62, full-length yeast two-hybrid bait (pDBa) (human) (UniProt Q7Z7H3).
T4 sequence: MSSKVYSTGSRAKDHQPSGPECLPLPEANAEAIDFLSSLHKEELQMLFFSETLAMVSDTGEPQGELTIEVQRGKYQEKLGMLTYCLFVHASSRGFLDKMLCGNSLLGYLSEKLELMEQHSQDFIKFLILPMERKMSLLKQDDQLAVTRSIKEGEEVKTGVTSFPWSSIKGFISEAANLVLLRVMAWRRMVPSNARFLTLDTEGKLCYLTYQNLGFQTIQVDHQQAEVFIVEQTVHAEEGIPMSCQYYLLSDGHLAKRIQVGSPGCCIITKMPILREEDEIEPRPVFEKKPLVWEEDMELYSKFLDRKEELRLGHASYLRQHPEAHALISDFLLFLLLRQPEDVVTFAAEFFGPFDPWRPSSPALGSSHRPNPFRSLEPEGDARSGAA
Nature of the test: two-hybrid; full-length C2orf62 in pDBa as bait in MaV203 yeast; human fetal brain cDNA library in pEXP502-AD as prey; growth on -WHL + 25 mM 3-AT, on -WUL and beta-galactosidase, all three positive; 30°C.

B1: V5-C2orf62 (protein, UniProt Q7Z7H3 1-387)
chain: T4 sequence
Take B1: the binding result in test [1] is recorded as “no binding”; in test [2] it was “binds”.

B2: EGFP-C2orf62 (protein, UniProt Q7Z7H3 1-387)
chain: T4 sequence
Regarding B2, the binding result with mCherry-TTC17 (human) is recorded as “binds”.

B3: TTC17 (Tetratricopeptide repeat protein 17), yeast two-hybrid prey clone, C2orf62-interacting region aa 945-1041 (domain or fragment, UniProt Q96AE7 945-1041)
chain: T2 sequence
For the molecule B3, the binding entry in test [3] was “binds”.
